Measurements published in PMC7476715.
No constants are given. Whether binding was seen depends on the method and setting. In cells and extracts the contact can be indirect. Binding can be weak; no strength is given. Sequences can lack the tags named with a protein.

Target: full-length rat SI-SII-SIII-IP3R1 (rat)
Experiment: co-IP; lysates of HEK293FT cells transfected with IP3R1 and FLAG-tagged Caspr2 JXM, immunoprecipitation with anti-IP3R1 antibody, immunoblotting

binding: binds
B1: FLAG-tagged Caspr2 JXM (domain or fragment, UniProt Q9UHC6 592-1257)
chain: NSIYEPSCEAYKHLGQTSNYYWIDPDGSGPLGPLKVYCNMTEDKVWTIVSHDLQMQTPVVGYNPEKYSVTQLVYSASMDQISAITDSAEYCEQYVSYFCKMSRLLNTPDGSPYTWWVGKANEKHYYWGGSGPGIQKCACGIERNCTDPKYYCNCDADYKQWRKDAGFLSYKDHLPVSQVVVGDTDRQGSEAKLSVGPLRCQGDRNYWNAASFPNPSSYLHFSTFQGETSADISFYFKTLTPWGVFLENMGKEDFIKLELKSATEVSFSFDVGNGPVEIVVRSPTPLNDDQWHRVTAERNVKQASLQVDRLPQQIRKAPTEGHTRLELYSQLFVGGAGGQQGFLGCIRSLRMNGVTLDLEERAKVTSGFISGCSGHCTSYGTNCENGGKCLERYHGYSCDCSNTAYDGTFCNKDVGAFFEEGMWLRYNFQAPATNARDSSSRVDNAPDQQNSHPDLAQEEIRFSFSTTKAPCILLYISSFTTDFLAVLVKPTGSLQIRYNLGGTREPYNIDVDHRNMANGQPHSVNITRHEKTIFLKLDHYPSVSYHLPSSSDTLFNSPKSLFLGKVIETGKIDQEIHKYNTPGFTGCLSRVQFNQIAPLKAALRQTNASAHVHIQGELVESNCGASPLTLSPMSSATDPWHLDHLDSASADFPYNPGQGQAIRNGV
